Assay results published in patent US20200131249A1, “NOVEL PROTEINS AND USE THEREOF” (EVOLVERITAS KFT., priority 2017, published 2020).
No constants are given. Whether binding was seen depends on the method and setting. Some results given as binding are weak or reduced against the parent protein; the word gives no strength.

Protein sequences, listed by entry. Tags and fused reporters are not part of them. Lines headed by an entry give the natural chain unless they say otherwise; changes in a name come on top. Residues count along the entry.
UniProt O00187, residues 287-686: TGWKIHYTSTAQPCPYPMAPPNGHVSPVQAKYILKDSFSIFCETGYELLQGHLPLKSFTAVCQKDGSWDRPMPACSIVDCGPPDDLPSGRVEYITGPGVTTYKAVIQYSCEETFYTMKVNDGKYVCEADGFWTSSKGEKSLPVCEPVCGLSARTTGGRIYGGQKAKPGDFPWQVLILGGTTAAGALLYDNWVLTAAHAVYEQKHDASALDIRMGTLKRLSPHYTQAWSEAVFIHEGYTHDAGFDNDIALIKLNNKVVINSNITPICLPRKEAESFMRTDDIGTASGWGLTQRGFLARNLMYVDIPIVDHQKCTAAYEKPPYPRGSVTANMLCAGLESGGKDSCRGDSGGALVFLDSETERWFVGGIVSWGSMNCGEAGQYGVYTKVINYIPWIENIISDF
UniProt P10646: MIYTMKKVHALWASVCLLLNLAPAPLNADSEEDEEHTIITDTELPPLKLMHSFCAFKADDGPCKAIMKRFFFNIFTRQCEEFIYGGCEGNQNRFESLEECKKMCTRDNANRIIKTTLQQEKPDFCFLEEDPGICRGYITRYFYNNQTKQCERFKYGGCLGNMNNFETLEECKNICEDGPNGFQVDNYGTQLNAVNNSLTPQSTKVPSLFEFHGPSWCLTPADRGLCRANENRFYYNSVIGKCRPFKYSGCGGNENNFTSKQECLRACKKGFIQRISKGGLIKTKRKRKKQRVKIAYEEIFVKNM

Molecular target: human MASP-2 catalytic fragment CCP1-CCP2-SP (human) (UniProt O00187)
Experiment: enzyme inhibition

- binding: binds
Substance: TFPI-D2, second Kunitz domain (residues 121-178) of human Tissue Factor Pathway Inhibitor-1 (from UniProt P10646 121-178)
